Data published in PubChem BioAssay AID540256 (National Center for Advancing Translational Sciences (NCATS), 2011).
The campaign covered roughly 300,000 compounds. About 3,700 (1.2%) were called active. Inconclusive means that the source gave no clear call. Such entries were picked first, then a sample of the others. Calls follow the shape of the full dose curve; tested in HEK293 cells. Potencies beside an inconclusive call are fits to weak or partial responses and may not hold up.

Test: qHTS for Inhibitors of binding or entry into cells for Lassa Virus; also: nearly all actives have a fitted effect of over 50% in size
Settings: Lassa virus pseudotype entry inhibition, cell reporter; series mostly up to 37.9 µM
Potency is read from the fitted curve at half-maximal effect.

SMILES	Potency
C=C(C)c1cccc(C(C)(C)NC(=O)Nc2ccc(OC)nc2)c1	inconclusive: 12.6 µM [inhibitor, partial curve, poor fit]
CCCCCCCCNC(=O)c1cccnc1SCC(=O)Nc1ccccc1OC	inconclusive: 14.1 µM [inhibitor, partial curve, poor fit]
COc1cc(CN(C(=O)c2oc3ccccc3c2C)C2CCS(=O)(=O)C2)cc(OC)c1OC (configuration not stated)	inactive
CCCC(C)C(=O)Nc1cc([N+](=O)[O-])ccc1Cl (configuration not stated)	inactive
CC(C)CNC(=O)c1cccc(NC(=O)COc2ccc([N+](=O)[O-])cc2)c1	inconclusive: 10 µM [inhibitor, partial curve]
Nc1c(C(O)(C(F)(F)F)C(F)(F)F)cc(C(O)(C(F)(F)F)C(F)(F)F)c2ccccc12	active: 22.4 µM
Cc1nc(-c2ccc(F)cc2)c(CC(=O)Nc2cc(S(=O)(=O)N3CCCCC3)ccc2C)s1	inconclusive: 3.55 µM [inhibitor, partial curve, poor fit]
CC(=O)OCCNc1cc(Sc2nc3ccccc3[nH]2)c2nonc2c1[N+](=O)[O-]	inactive
Cc1nn(C)c(C)c1/C=C/C(=O)c1cccs1	inactive
Cc1ccc(OCc2nnc(SCC(=O)c3cccs3)n2-c2ccccc2)cc1C	inconclusive: 4.47 µM [inhibitor, full curve, poor fit]
CC(C)c1ccc(NC(=O)c2ccc(Br)o2)cc1	inconclusive: 7.94 µM [inhibitor, partial curve, poor fit]
CC(=O)Nc1ccc(SCC(=O)OCC(=O)NC(=O)NC2CCCC2)cc1	inconclusive: 6.31 µM [inhibitor, single point]
Cc1cc2cc(CN(Cc3ccco3)C(=S)NCC3CCCO3)c(=O)[nH]c2cc1C (configuration not stated)	inactive
O=C(O)c1ccccc1-c1c2ccc(=O)cc-2oc2cc(O)ccc12	active: 28.1 µM
CCOc1ccccc1/C=N/Nc1ccccc1[N+](=O)[O-]	inactive
CC(C)(C)C1=NN(C(=O)c2ccccc2)C(O)(C(C)(C)C)C1 (configuration not stated)	inconclusive: 11.2 µM [activator, partial curve]
CCOC(=O)CCP(=O)(O)C(O)c1ccc(OC)cc1 (configuration not stated)	inconclusive: 0.708 µM [inhibitor, partial curve, poor fit]
O=C(c1cnc(-c2ccc(Cl)cc2)s1)c1ccc(Cl)cc1Cl	inconclusive: 0.58 µM [activator, partial curve, poor fit]
CCCn1c(=O)c(C(=O)Nc2ccccc2C)c(O)c2ccccc21	inactive
O=C(O)CCCCCN1C(=O)C2CCCCC2C1=O (configuration not stated)	inconclusive: 29.1 µM [inhibitor, single point]
CCOC(=O)C1CCCN(C(=O)c2cc(Cl)ccc2Cl)C1 (configuration not stated)	inconclusive: 1.64 µM [inhibitor, partial curve]
CCOC(=O)c1c(NC(=O)C(C)Sc2c[nH]c3ccccc23)sc2c1CCC2 (configuration not stated)	inconclusive: 18.4 µM [inhibitor, single point]
O=C1N=C(N2CCCC2)CN1c1ccccc1	inconclusive: 5.62 µM [activator, single point]
CC(C)CC(=O)Nc1cccc(-c2nc3ccccc3o2)c1	inactive

SMILES	Potency
COc1ccc(CNC(=O)COc2ccc(Br)c(C)c2)cc1	inconclusive: 5.62 µM [inhibitor, full curve, poor fit]
C=CCOc1c(CNc2ccc(C(=O)O)cc2)cccc1OCC	inactive
O=C(NCc1ccccc1Cl)C1CCC(CNS(=O)(=O)c2ccc(Br)s2)CC1 (configuration not stated)	inactive
O=[N+]([O-])c1ccc(C=Nc2cccc3ccccc23)s1	inconclusive: 20 µM [inhibitor, partial curve, poor fit]
O=C(COC(=O)C1CCC(=O)N1)Nc1ccccc1OC(F)F (configuration not stated)	inactive
Cc1cc(C(=O)O)cc(Br)c1N	inactive
O=C(CSCc1ccc(F)cc1)NCc1cccs1	inactive
Cc1ccc(-c2nn(Cc3ccccc3)cc2C(=O)NCC2CCCO2)cc1 (configuration not stated)	inactive
Cc1ccc(N(Cc2cccs2)C(=O)COc2ccccc2[N+](=O)[O-])cc1	inconclusive: 35.5 µM [inhibitor, single point]
COc1ccccc1C(OC(=O)c1cccs1)C(=O)NCc1ccco1 (configuration not stated)	inconclusive: 29.1 µM [activator, single point]
O=C(NCC(=O)N1CCCCCCC1)c1ccc(Br)o1	inconclusive: 14.1 µM [activator, single point]
COc1ccccc1Nc1c2c(nc3ccccc13)CCC2	inconclusive: 4.47 µM [inhibitor, full curve]
CC1=NN(c2nc3ccccc3[nH]2)C(=O)C1Cc1ccccc1 (configuration not stated)	inconclusive: 3.98 µM [inhibitor, full curve, poor fit]
COc1ccc(C)cc1NC(=O)c1nn(-c2ccccc2)cc1OC	inconclusive: 12.6 µM [inhibitor, partial curve, poor fit]
Fc1cccc(NC(=S)N2CCN(c3ccccn3)CC2)c1	active: 12.6 µM
Cc1ccccc1-n1nc2c(c1NC(=O)c1ccc(Br)o1)CSC2	inactive
CCc1ccc(-c2cc(C)no2)cc1S(=O)(=O)Nc1ccc(Cl)cc1	inactive
COc1ccc(CNC(=O)CN(C)Cc2ccc(C(C)(C)C)cc2)cc1	inconclusive: 5.62 µM [inhibitor, full curve, poor fit]
COc1cc(CNC2CCCCCCC2)cc(Cl)c1OC	inconclusive: 35.5 µM [inhibitor, single point]
Cc1ccc(S(=O)(=O)NCCC(=O)Nc2ccc(C)cc2C(=O)c2ccccc2)cc1	inactive
O=[N+]([O-])c1ccccc1/C=C/C=N/n1c(-c2ccco2)n[nH]c1=S	inconclusive: 2.51 µM [inhibitor, full curve]
Nc1cccc(Nc2ccccc2)c1	inactive
O=C(Nc1cccc(C(F)(F)F)c1)c1cccnc1NCCO	inactive
COc1ccc(CCNCC(O)COc2ccc(OC)cc2C(C)(C)C)cc1 (configuration not stated)	inconclusive: 1.78 µM [inhibitor, partial curve, poor fit]

By substructure, those above with a tert-butyl group.
SMILES	Potency
CC(C)(C)C1=NN(C(=O)c2ccccc2)C(O)(C(C)(C)C)C1 (configuration not stated)	inconclusive: 11.2 µM [activator, partial curve]
COc1ccc(CNC(=O)CN(C)Cc2ccc(C(C)(C)C)cc2)cc1	inconclusive: 5.62 µM [inhibitor, full curve, poor fit]
COc1ccc(CCNCC(O)COc2ccc(OC)cc2C(C)(C)C)cc1 (configuration not stated)	inconclusive: 1.78 µM [inhibitor, partial curve, poor fit]

Additional structures follow:

SMILES	Potency
COc1ccccc1NC(=O)CSc1nc(O)c(Cc2ccccc2)c(=O)[nH]1	inconclusive: 0.461 µM [inhibitor, full curve, poor fit]
COc1ccccc1CNC(=O)CCC1N=C2c3ccccc3N=C(SCC(=O)NCCc3ccc(OC)c(OC)c3)N2C1=O (configuration not stated)	inactive
CCOC(=O)N1CCN(C(=O)CSc2nnc3[nH]c(=O)c(C)c(C)n23)CC1	inactive
Cc1n[nH]c(=S)n1/N=C/c1ccc(OCc2ccc(Cl)cc2Cl)cc1	inconclusive: 20.6 µM [activator, single point]
CC(NC(=O)c1ccc(Br)s1)C1CCCO1 (configuration not stated)	inconclusive: 23.1 µM [activator, single point]
O=c1cc(-c2ccccc2)[nH]c2nc3ccccc3n12	inconclusive: 11.6 µM [inhibitor, single point]
Cc1ccc(CSCC(=O)NCCc2ccccc2)cc1	inconclusive: 14.1 µM [activator, single point]
CCc1c(O)nc(SCc2ccc(F)cc2)[nH]c1=O	inactive
COc1ccc(C(=O)CSc2[nH]c(=O)cc(C(F)(F)F)c2C#N)cc1	inconclusive: 3.98 µM [inhibitor, single point]
COC(=O)c1cc(NC(=O)c2ccc(-c3ccccc3)cc2)ccc1Cl	inconclusive: 35.5 µM [inhibitor, single point]
CCOC(=O)N1CCN(c2nc(-c3ccc(OC)cc3)no2)CC1	inactive
O=C(CSc1nc2c([nH]c3ccccc32)c(=O)n1-c1ccc(F)cc1)NCC1CCCO1 (configuration not stated)	inconclusive: 22.4 µM [activator, single point]
Cc1ccccc1C(=O)Nc1sc2c(c1C(=O)O)CCC(C(C)(C)C)C2 (configuration not stated)	inconclusive: 1.12 µM [inhibitor, full curve, poor fit]
CCN(CC)CCN(Cc1cc2cc3c(cc2[nH]c1=O)OCCO3)C(=S)NCC(C)C	inconclusive: 22.4 µM [inhibitor, single point]
CCn1c(NCc2ccccc2Cl)nc2ccccc21	inconclusive: 3.16 µM [activator, partial curve, poor fit]
Cc1ccc(C2C(=O)N(C3CCCCCC3)CC(=O)N2C(C)C)cc1 (configuration not stated)	inconclusive: 22.4 µM [activator, single point]
Cc1ccc(F)cc1NC(=O)N1CCCN(C(=O)OC(C)(C)C)CC1	inconclusive: 1.26 µM [inhibitor, single point]
O=C(NCCc1ccc(Cl)cc1)c1cc2ccccn2n1	inconclusive: 8.91 µM [inhibitor, partial curve]
Cc1cc([N+](=O)[O-])ccc1-c1ccc(C2Nc3ccccc3C(=O)N2O)o1 (configuration not stated)	inconclusive: 29.1 µM [inhibitor, single point]
CCOC(=O)c1c(C)[nH]c(C)c1C(=O)COC(=O)c1cccc(S(=O)(=O)N(CC)CC)c1	active: 22.4 µM
O=C(COc1ccc(Cl)cc1Br)NC(=O)NCc1ccccc1	inconclusive: 8.91 µM [inhibitor, partial curve, poor fit]
CNC(=O)C1CCC(Cn2c(=O)c3sccc3n(CC(=O)NCc3ccc(C)cc3)c2=O)CC1 (configuration not stated)	inactive
CCOC(=O)c1ccc(N2C(=O)c3n[nH]c(C)c3C2c2ccccc2)cc1 (configuration not stated)	inactive
O=C(CN1C(=O)S/C(=C\c2ccccc2Cl)C1=O)NC1C=CS(=O)(=O)C1 (configuration not stated)	inconclusive: 7.08 µM [inhibitor, partial curve, poor fit]

As entered above.
Value of `O=C(O)c1ccccc1-c1c2ccc(=O)cc-2oc2cc(O)ccc12` under Potency: active: 28.1 µM
Value of `CC(C)CC(=O)Nc1cccc(-c2nc3ccccc3o2)c1` under Potency: inactive
